Screening data, single-dose tests

Sequences of proteins named here, by UniProt entry; tags and fusion partners are left off. Residues count along the entry.
UniProt I6X8D2, whole entry: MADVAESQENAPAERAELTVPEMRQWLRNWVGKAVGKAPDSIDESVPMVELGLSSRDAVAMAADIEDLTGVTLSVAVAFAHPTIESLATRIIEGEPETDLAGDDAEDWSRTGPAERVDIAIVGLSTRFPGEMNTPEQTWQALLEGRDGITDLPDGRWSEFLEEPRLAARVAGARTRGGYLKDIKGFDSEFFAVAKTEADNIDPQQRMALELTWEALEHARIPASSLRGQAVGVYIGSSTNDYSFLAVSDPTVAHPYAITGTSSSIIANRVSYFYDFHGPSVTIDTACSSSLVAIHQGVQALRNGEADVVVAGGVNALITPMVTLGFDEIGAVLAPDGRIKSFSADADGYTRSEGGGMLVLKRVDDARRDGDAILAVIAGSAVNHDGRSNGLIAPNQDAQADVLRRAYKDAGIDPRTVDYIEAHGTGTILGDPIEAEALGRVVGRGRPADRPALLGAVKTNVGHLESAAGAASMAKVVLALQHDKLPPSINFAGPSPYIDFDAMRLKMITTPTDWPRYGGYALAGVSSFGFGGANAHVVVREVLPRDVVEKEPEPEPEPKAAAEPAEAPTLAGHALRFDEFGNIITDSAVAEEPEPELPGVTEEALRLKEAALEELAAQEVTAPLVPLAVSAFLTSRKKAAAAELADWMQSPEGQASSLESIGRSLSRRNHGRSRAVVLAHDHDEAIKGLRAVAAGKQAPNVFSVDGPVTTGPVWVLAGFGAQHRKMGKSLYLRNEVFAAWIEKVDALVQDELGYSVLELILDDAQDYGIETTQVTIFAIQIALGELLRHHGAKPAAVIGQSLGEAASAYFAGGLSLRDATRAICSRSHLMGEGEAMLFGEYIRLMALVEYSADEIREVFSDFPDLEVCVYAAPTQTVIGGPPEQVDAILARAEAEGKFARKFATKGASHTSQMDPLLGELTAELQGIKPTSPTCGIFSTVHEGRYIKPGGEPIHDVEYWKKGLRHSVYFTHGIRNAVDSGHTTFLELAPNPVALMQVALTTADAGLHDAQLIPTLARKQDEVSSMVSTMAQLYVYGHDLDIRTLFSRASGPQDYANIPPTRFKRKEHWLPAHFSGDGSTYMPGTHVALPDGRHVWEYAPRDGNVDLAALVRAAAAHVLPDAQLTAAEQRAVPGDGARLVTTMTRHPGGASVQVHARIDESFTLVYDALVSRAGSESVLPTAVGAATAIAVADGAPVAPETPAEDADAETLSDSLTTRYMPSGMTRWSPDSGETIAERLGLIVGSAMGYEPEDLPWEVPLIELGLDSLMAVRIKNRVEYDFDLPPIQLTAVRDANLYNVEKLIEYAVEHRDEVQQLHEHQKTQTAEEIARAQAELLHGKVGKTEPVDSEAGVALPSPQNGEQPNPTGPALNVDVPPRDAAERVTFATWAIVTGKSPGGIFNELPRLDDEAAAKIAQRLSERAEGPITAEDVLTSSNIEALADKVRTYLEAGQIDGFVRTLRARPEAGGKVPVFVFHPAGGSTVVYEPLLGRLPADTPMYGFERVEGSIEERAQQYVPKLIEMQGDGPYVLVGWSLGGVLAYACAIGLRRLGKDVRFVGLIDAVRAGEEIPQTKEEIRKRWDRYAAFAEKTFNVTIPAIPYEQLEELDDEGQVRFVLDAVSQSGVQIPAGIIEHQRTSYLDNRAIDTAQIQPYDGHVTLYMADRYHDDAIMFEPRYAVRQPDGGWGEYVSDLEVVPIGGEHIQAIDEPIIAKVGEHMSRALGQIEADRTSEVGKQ
UniProt A4I591, 1-473: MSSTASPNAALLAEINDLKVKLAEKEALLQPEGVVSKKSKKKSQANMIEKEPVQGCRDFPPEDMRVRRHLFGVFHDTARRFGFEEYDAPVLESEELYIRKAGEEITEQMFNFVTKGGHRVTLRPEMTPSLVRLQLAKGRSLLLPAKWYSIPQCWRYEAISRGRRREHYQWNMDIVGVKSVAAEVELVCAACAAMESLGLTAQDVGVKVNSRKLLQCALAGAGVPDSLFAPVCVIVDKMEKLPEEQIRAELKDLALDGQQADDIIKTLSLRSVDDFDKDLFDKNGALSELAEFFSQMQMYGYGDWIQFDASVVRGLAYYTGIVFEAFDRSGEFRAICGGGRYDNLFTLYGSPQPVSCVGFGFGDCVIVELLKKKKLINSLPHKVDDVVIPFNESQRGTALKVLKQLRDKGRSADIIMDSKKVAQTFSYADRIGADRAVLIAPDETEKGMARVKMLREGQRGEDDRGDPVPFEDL
UniProt P9WNZ1, whole entry: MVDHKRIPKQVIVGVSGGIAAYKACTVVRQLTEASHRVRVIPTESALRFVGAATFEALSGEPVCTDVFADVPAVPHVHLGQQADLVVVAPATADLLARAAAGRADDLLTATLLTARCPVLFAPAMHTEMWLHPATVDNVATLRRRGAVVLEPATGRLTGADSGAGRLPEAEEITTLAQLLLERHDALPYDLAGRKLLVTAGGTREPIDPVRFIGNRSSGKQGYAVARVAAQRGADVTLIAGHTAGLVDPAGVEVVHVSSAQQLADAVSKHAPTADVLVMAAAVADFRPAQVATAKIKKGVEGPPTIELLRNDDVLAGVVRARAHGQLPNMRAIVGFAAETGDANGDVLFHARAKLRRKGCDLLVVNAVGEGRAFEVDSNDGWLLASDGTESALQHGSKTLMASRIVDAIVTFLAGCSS

The values are deposited in ChEMBL (CHEMBL3988442, “University of Dundee, Small-Polar-MMV Screening Library” (2021)).

Pks13 thioesterase: 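Enzyme assay of the thioesterase domain of polyketide synthase 13; the read-out is not stated. Target: Polyketide synthase Pks13, Mycobacterium tuberculosis (UniProt I6X8D2). Compounds at 30 µM. Higher reads as stronger inhibition (inferred from which compounds were picked for retests). About 67,000 compounds were tested under these conditions; 0.46% (about 300) showed 50% or more at least once.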
LiHisRS: 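Enzyme assay of histidyl-tRNA synthetase; the read-out is not stated. Target: Histidine-tRNA ligase, Leishmania infantum (UniProt A4I591). Tested at 30 µM. The record gives no direction; compounds that gave an IC50 in retests scored well above the rest, so higher reads as stronger inhibition. The assay is labelled LdHisRS but filed under L. infantum. Size under these conditions: about 69,000 compounds, about 410 of them at 50% or above in at least one test.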
CoaBC: 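Enzyme assay of CoaBC with a phosphate dye (Biomol Green) read at 650 nm. Target: Coenzyme A biosynthesis protein CoaBC, Mycobacterium tuberculosis (UniProt P9WNZ1). Tested at 30 µM. Higher reads as stronger inhibition, judged from the few compounds that gave an IC50. Most strong results did not repeat in a second test. About 67,000 compounds were tested under these conditions; 0.06% (about 40) showed 50% or more at least once.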

Each number is a percent effect as filed. How 0% and 100% were set is not recorded. Most values in the screen are low, and negative values occur. Compounds were drawn at random from those tested, without regard to their results. A dash means the value is not listed here; it may have been measured.

| SMILES | Pks13 thioesterase | LiHisRS | CoaBC |
|---|---|---|---|
| `Cc1nnc2n1CCN(Cc1csc(-c3ncccn3)n1)C2` | -4.137% | -1.786% | 7.237% |
| `Cn1nc2c(c1NC(=O)c1ccc(Cl)s1)CCC2` | 2.374% | 17.33% | -0.994% |
| `CC(C)N1CCC(CC(=O)N2CCC(C(O)c3nccn3C)CC2)CC1` (configuration not stated) | -15.27% | 0% | 2.716% |
| `CCc1cc(=O)[nH]c2nnc(SCC(=O)OC)n12` | -7.831% | 17.31% | 9.595% |
| `O=c1c(CN2CCCCCC2)coc(O)c1CN1CCOCC1` | -17.01% | 17.39% | -1.58% |
| `O=C(Nc1ccc(F)cc1)N(CCC(F)(F)F)C[C@H](O)CO` | -1.494% | 0% | 3.629% |
| `CC1N(CC2CC2)C(=O)COC12CCN(C(=O)c1ccncc1)CC2` (configuration not stated) | -21.92% | 13.68% | - |
| `Cc1nnc(SCC(=O)NCc2ccc3c(c2)CCC(=O)N3)n1C` | -20.44% | 15.04% | 10.75% |
| `CC(C)[C@H]1CN(Cc2ccccn2)C[C@@H]1NC(=O)CC1CCC1` | -22.08% | 4.225% | 6.407% |
| `Cc1cc(-c2cnc(NCc3cccnc3)nc2C(C)C)on1` | -42.55% | 9.489% | 6.995% |
| `COc1ccccc1OCc1cc(C(=O)N2CCCCCC2CO)n[nH]1` (configuration not stated) | -3.967% | 33.33% | 4.536% |
| `CC(C)c1noc(CNc2ccc(OC(F)F)cc2OC(F)F)n1` | -57.97% | 10.34% | 4.069% |
| `Cc1cccc(NCCOc2cccc(C#N)c2)c1C(N)=O` | -20.5% | -19.4% | -4.819% |
| `O=C(NCC1CC1)N1CCN(Cc2ccc3c(c2)OCCO3)CC1` | -15% | 19.7% | 3.172% |
| `CN1CCN(Cc2nc3c(s2)CCCC3)[C@H]2CS(=O)(=O)C[C@H]21` | -6.708% | 18.31% | -7.323% |
| `O=C1COc2cccc(OCc3ccccn3)c2N1` | -28.84% | 22.08% | 6.962% |
| `CCOC(=O)C(C)NC(=O)N1CCN(c2nc3ccccc3n2C)CC1` (configuration not stated) | -2.383% | 0% | 0.8424% |
| `O=C(C1CC=CC1)N1CCc2c(COCc3ccncc3)cncc2C1` | 5.811% | 28.57% | 11.83% |
| `CC(C)CNC(=O)c1[nH]nc(C2CC2)c1Br` | -30.31% | 4.145% | 2.42% |
| `CCC(CC)(CNC(C)=O)NC(C)c1ccccc1` (configuration not stated) | -9.461% | 14.47% | 4.194% |
| `Cc1noc(C)c1CN1CCN(C(C)c2nc(C3CC3)no2)CC1` (configuration not stated) | -25.94% | 8.547% | -4.021% |
| `CC(CN1CCCC1=O)NC(=O)c1cc(Cl)c2c(c1)OCO2` (configuration not stated) | -20.49% | 14.16% | -0.3444% |
| `CS(=O)(=O)c1ccc(NC(=O)CSC(F)(F)F)cn1` | -4.182% | -2.222% | -3.922% |
| `CCOCc1cnc2n1CCN(C(=O)Cc1cccs1)C2C` (configuration not stated) | -35.51% | 16% | 4.303% |
| `Cn1cnnc1C1CCCN(C(=O)NCCn2ccnc2)C1` (configuration not stated) | -20.91% | -5.769% | 2.151% |
| `O=C(NCc1ccc(Br)cc1F)C1(O)CCSCC1` | -20.86% | 4.167% | 6.696% |
| `Cc1cccc(CCC(=O)NCC2CCCN2c2cccnn2)c1` (configuration not stated) | -17.34% | -43.75% | 4.555% |
| `Cc1ccc(CNC(=O)c2ccc(=O)n(C)n2)c(OC2CCCC2)c1` | -8.945% | 18.33% | 1.517% |
| `CC(=O)N1CCCCC1c1nc(C)cc(-c2ccccc2C(=O)O)n1` (configuration not stated) | 6.05% | 11.46% | 0.7353% |
| `Cc1nc(N2C[C@@H](CN3CCCN(C)CC3)[C@@H](CO)C2)c2ccsc2n1` | -60.29% | 21.33% | -17.36% |
| `O=C(CN1CCOC(c2ccccc2C(F)(F)F)C1)NC1CC1` (configuration not stated) | -14.35% | 7.895% | 2.554% |
| `Cc1nccn1C1CCCN(C(=O)Cn2ccc(=O)n(C)c2=O)C1` (configuration not stated) | -5.892% | -29.82% | 6.855% |
| `CN(C)C(=O)c1cn2cc(-c3ccccc3Cl)n(CC3CC3)c(=O)c2n1` | -45.65% | 31.15% | 4.113% |
| `CC(C)(C)c1n[nH]c(C2CN(C(=O)c3cc(C4CC4)[nH]n3)CCO2)n1` (configuration not stated) | -12.97% | 12.33% | -5.402% |
| `Cc1ccnc(NC(=O)CCc2cnn(C)c2C)c1` | 4.708% | 7.143% | -2.197% |
| `O=C1CCCN1CCC1CCN(C2CCC3(CCNCC3)CC2)CC1` | -12.23% | 1.429% | -27.25% |
| `CN(C)CCNc1cc(-c2ccc[nH]c2=O)c2cc[nH]c2n1` | -3.615% | 25% | -20.17% |
| `Cc1ccc(C)c(C(=O)Nc2ccc(OC3CCN(C)CC3)cc2)c1` | 14.66% | 5.6% | 0.8444% |

5 of the entries, repeated:

{"smiles": "CC(=O)N1CCCCC1c1nc(C)cc(-c2ccccc2C(=O)O)n1", "stereo": "configuration not stated", "Pks13 thioesterase": 6.05, "LiHisRS": 11.46, "CoaBC": 0.7353}
{"smiles": "CN(C)C(=O)c1cn2cc(-c3ccccc3Cl)n(CC3CC3)c(=O)c2n1", "Pks13 thioesterase": -45.65, "LiHisRS": 31.15, "CoaBC": 4.113}
{"smiles": "Cc1cccc(CCC(=O)NCC2CCCN2c2cccnn2)c1", "stereo": "configuration not stated", "Pks13 thioesterase": -17.34, "LiHisRS": -43.75, "CoaBC": 4.555}
{"smiles": "O=C(CN1CCOC(c2ccccc2C(F)(F)F)C1)NC1CC1", "stereo": "configuration not stated", "Pks13 thioesterase": -14.35, "LiHisRS": 7.895, "CoaBC": 2.554}
{"smiles": "Cc1nccn1C1CCCN(C(=O)Cn2ccc(=O)n(C)c2=O)C1", "stereo": "configuration not stated", "Pks13 thioesterase": -5.892, "LiHisRS": -29.82, "CoaBC": 6.855}